# Article PMC7819943, “Rice protein-binding microarrays: a tool to detect cis-acting elements near promoter regions in rice”
# Amino acid sequences for entries named in this document (tags omitted).
# UniProt Q0JBA9, entry or part of it: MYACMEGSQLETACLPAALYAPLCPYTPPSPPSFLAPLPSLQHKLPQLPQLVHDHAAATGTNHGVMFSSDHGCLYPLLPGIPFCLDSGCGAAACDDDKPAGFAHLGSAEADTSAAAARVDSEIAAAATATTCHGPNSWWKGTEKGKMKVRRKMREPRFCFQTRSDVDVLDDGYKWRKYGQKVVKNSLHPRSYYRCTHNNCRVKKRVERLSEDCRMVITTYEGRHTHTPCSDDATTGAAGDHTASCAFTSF
# The other results are listed elsewhere or left out.
# Molecular target: OsWRKY34 (Oryza sativa, UniProt Q0JBA9 1-250)
# Test: protein-binding microarray (RPBM); PBS, 2% BSA, 51.3 ng/ul salmon testes DNA, 50 uM zinc acetate, 200 nM TF, 25 C, 1 h; high values mean tight binding
# Conditions: protein: recombinant; tags: N-terminal polyhistidine and DsRed monomer fusion (pET32a); label: CyDye5-dUTP incorporated in the synthesized complementary strand; 3' TTTTT single-stranded linker to array surface; dsDNA, one strand shown
# In short: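 The binding signal is fluorescence intensity per feature, in arbitrary units, read on an Axon 4000B scanner. Polyhistidine- and DsRed-tagged transcription factors (N-terminal fusions) from E. coli BL21-CodonPlus were purified on Ni–NTA and applied at 200 nM for 1 h at 25 °C to a double-stranded, BSA-blocked custom Agilent array in buffer with 50 µM zinc acetate.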
row,Sequence,binding signal
1,GTCTTCGCAAACGCCGTCCATTTTCCGTCGCCGGACCCCTCGGAGTCACCTAGTGCAG,9310 fluorescence intensity (a.u.)
2,CGAACCATCAACCAACCGTCCACGCAAACCAACTCGCCACCGGAGTCACCTAGTGCAG,10000 fluorescence intensity (a.u.)
3,TAGGGATTGCTATAAACGGAGCGGAGAATTTTGTTTGTTTCGGAGTCACCTAGTGCAG,8360 fluorescence intensity (a.u.)
4,TCTCTCTCTCTCTCTCTCTCTCTCTCTCTCTCTCTCTCCGCGGAGTCACCTAGTGCAG,11000 fluorescence intensity (a.u.)
5,GCTGAGAGAGAGAGATGGTTGAATTTGCTATAGTTAGGCACGGAGTCACCTAGTGCAG,8450 fluorescence intensity (a.u.)
6,AACCACGCTTTCCTATGGCCCACCTGTCATGTAATCAGTTCGGAGTCACCTAGTGCAG,11500 fluorescence intensity (a.u.)
7,GCTCGGTTGCATACCAAATGTCTTCTCCTACAGCATTCTTCGGAGTCACCTAGTGCAG,9920 fluorescence intensity (a.u.)
8,TGTAAGTTTCCAGTGTTCACATTTAACCGTTCGTCTTATTCGGAGTCACCTAGTGCAG,8640 fluorescence intensity (a.u.)
9,GAATGCAAACAACGCTTATCCATTATGTTTCGCTTTGTATCGGAGTCACCTAGTGCAG,8480 fluorescence intensity (a.u.)
10,CTGGTCAGTTGGTCTTGTGTTTTGGGCTTTTTCGGCCCGTCGGAGTCACCTAGTGCAG,12200 fluorescence intensity (a.u.)
11,CAAATGTTGGACACGGAAACCAGGGTTTGTCTTTTTTTTTCGGAGTCACCTAGTGCAG,8610 fluorescence intensity (a.u.)
12,GCAGCTACCACTCCAGCTTATCCATCTCATCATCCATTCCCGGAGTCACCTAGTGCAG,10200 fluorescence intensity (a.u.)
13,TCGTGCAAAACCGGGGAGGGGTTGTTTGAGGAAAGAGGAACGGAGTCACCTAGTGCAG,8460 fluorescence intensity (a.u.)
14,TTGAATAATTGTGTGTTCCTTATCTTGGTCTGGTCACTTTCGGAGTCACCTAGTGCAG,10300 fluorescence intensity (a.u.)
15,GTGTAGATTGATTGGTTCTTGGTGGTGGTGGTGGTGGATCCGGAGTCACCTAGTGCAG,22200 fluorescence intensity (a.u.)
16,GGAGGAGCGGTGCGTGGGGTCAGCGGCCGGCGGGAGGGCACGGAGTCACCTAGTGCAG,9670 fluorescence intensity (a.u.)
17,CATCAGTGTCAGTAATTTGCCCTATGTTTTTAGATCAAGACGGAGTCACCTAGTGCAG,9290 fluorescence intensity (a.u.)
18,CGACGACCAGACCACGCATTTCTTTTCTTTTTTTCTTTTTCGGAGTCACCTAGTGCAG,15000 fluorescence intensity (a.u.)
19,CTTATCCATCCGCACCCACCTCCTCCATCCTGCTATAAACCGGAGTCACCTAGTGCAG,8400 fluorescence intensity (a.u.)
20,GCTTCGGGCATCGTCTCTCCCAGCGCCGGCCGGACCGATGCGGAGTCACCTAGTGCAG,8660 fluorescence intensity (a.u.)
21,AAATTTCTAGCCTCCACAGCGAACGTGATTATGTATTTTTCGGAGTCACCTAGTGCAG,8780 fluorescence intensity (a.u.)

# Random excerpt: 3 records from the list.
row,Sequence,binding signal
1,GTCTTCGCAAACGCCGTCCATTTTCCGTCGCCGGACCCCTCGGAGTCACCTAGTGCAG,9310 fluorescence intensity (a.u.)
14,TTGAATAATTGTGTGTTCCTTATCTTGGTCTGGTCACTTTCGGAGTCACCTAGTGCAG,10300 fluorescence intensity (a.u.)
2,CGAACCATCAACCAACCGTCCACGCAAACCAACTCGCCACCGGAGTCACCTAGTGCAG,10000 fluorescence intensity (a.u.)

# (continued)

row,Sequence,binding signal
1,CGTAGAAGGGATTGGGTGAAATTACAGGGGCATGTAGGTACGGAGTCACCTAGTGCAG,9960 fluorescence intensity (a.u.)
2,TGACAAGCAGACCCCGTATTTTTTCTTCTCACTTCACTTACGGAGTCACCTAGTGCAG,11000 fluorescence intensity (a.u.)
3,AGCCTATTTCATTTGATATATCATGGTGCATGATCTAATTCGGAGTCACCTAGTGCAG,11100 fluorescence intensity (a.u.)
4,TCATATCTGTAGCCCGCTGCTTTTCTGTCTCTTTATCTCTCGGAGTCACCTAGTGCAG,12800 fluorescence intensity (a.u.)
5,GTGTTGGTTTCAAAATATGGACTAGATTGCCGTTTAGTTTCGGAGTCACCTAGTGCAG,11200 fluorescence intensity (a.u.)
6,ATTTTGTCTTGAGTGGTTTGGGGTTTTGTGCTATTGGGCCCGGAGTCACCTAGTGCAG,8830 fluorescence intensity (a.u.)
7,CCGACGAACCATACCTCCCTCAGCTCCCACCGCGCACCATCGGAGTCACCTAGTGCAG,8140 fluorescence intensity (a.u.)
8,CCTTACTATCATGCTCTTGTTTTTTTGCATATTTATTCAACGGAGTCACCTAGTGCAG,14300 fluorescence intensity (a.u.)
9,CTGTTTCAAGTTTTCTTACTAGCAATGCTCATATTTACTTCGGAGTCACCTAGTGCAG,10500 fluorescence intensity (a.u.)
10,CAGGGATACTATCTTTTTGGCCATGGGTTCCACAGTTACACGGAGTCACCTAGTGCAG,8150 fluorescence intensity (a.u.)
11,GCCACTACCGCTCGCCCACACATTGTCATTATGTCAACCCCGGAGTCACCTAGTGCAG,11000 fluorescence intensity (a.u.)
12,GGGAGAGGGAACAGGGGAGGGTGGCGAGCTCCTGACCATCCGGAGTCACCTAGTGCAG,11100 fluorescence intensity (a.u.)
13,CCACCCCACATGACCGCCCATTTCCGTATTCTCCGGCAGGCGGAGTCACCTAGTGCAG,8220 fluorescence intensity (a.u.)
14,ACACTCACTCTCTCTCTCTCTCTCTCTCTCTCTCGACATGCGGAGTCACCTAGTGCAG,10100 fluorescence intensity (a.u.)
15,ACCATGCAAGATCATATACTTACAGCTTTTCTGGTTGTTTCGGAGTCACCTAGTGCAG,10300 fluorescence intensity (a.u.)
16,TTATTGGGAGCGCGCGGGGTCGGGGATACGGGCCGTATCACGGAGTCACCTAGTGCAG,8790 fluorescence intensity (a.u.)
17,TGTTTAGTTCCAAAGTTTTTTTTTCCAAACTTCCAACTTTCGGAGTCACCTAGTGCAG,8220 fluorescence intensity (a.u.)
18,TCGGCTTGGTGGGGCTGGAGAACGTCTTTTCTCAATTGTGCGGAGTCACCTAGTGCAG,22000 fluorescence intensity (a.u.)
19,TTTACGTCTCTCAAACCTCATATACTCTGGTCGTCTCTCGCGGAGTCACCTAGTGCAG,8190 fluorescence intensity (a.u.)
20,AAATCTGTGTTTCCCAACTTTTGTTTTCTAGTTTATTTTTCGGAGTCACCTAGTGCAG,10400 fluorescence intensity (a.u.)
21,AACGCCTCGCCACCACATGATTTCGCCTGCCTGTTGTTCTCGGAGTCACCTAGTGCAG,9090 fluorescence intensity (a.u.)

row,Sequence,binding signal
1,CTTCTCTTTGTTTTCTTGTTTGCTTGCTTGGTGTAAAGAACGGAGTCACCTAGTGCAG,16100 fluorescence intensity (a.u.)
2,ATTTTTTTTTTTGTTATTGACCAGACATATGGCTAATATTCGGAGTCACCTAGTGCAG,10800 fluorescence intensity (a.u.)
3,CCTACTACTCCTACCTGCTTCAGCTTTGCTTCCTGCGCATCGGAGTCACCTAGTGCAG,9610 fluorescence intensity (a.u.)
4,ATTTTGTTTCTCCTTGGTTGGTTTTGCTTCACCTAGATCACGGAGTCACCTAGTGCAG,11200 fluorescence intensity (a.u.)
5,GTCCTTAACGACGTCGTTGACTTTTCACATAACATTATACCGGAGTCACCTAGTGCAG,17300 fluorescence intensity (a.u.)
6,CTTTATACGTGACTTGTTTTTTTAATTTTTTATATAATTTCGGAGTCACCTAGTGCAG,9980 fluorescence intensity (a.u.)
7,AACGTTTGACCGTCCGCCTTATATGAAATTTTTTATAATTCGGAGTCACCTAGTGCAG,8230 fluorescence intensity (a.u.)
8,CATTTTCACTCCCTACTCAACAAACTGGACTGTTTAGCTACGGAGTCACCTAGTGCAG,8150 fluorescence intensity (a.u.)
9,ACGAATTTGAACAAACTCTCTATCTAGATTCATTGACCTTCGGAGTCACCTAGTGCAG,8450 fluorescence intensity (a.u.)
10,GTTGGGGTGGTTGGTTTGGGGATCCCCTGTTGTACCCTGCCGGAGTCACCTAGTGCAG,10700 fluorescence intensity (a.u.)
11,ACCGGCTACCTCGTCCATCCGTCGTCCTCCGCGACCGATCCGGAGTCACCTAGTGCAG,11100 fluorescence intensity (a.u.)
12,CAGCCTTGCGCTTGCACCTCTCAAAATTTTTCTATTCTTTCGGAGTCACCTAGTGCAG,8540 fluorescence intensity (a.u.)
13,AGGCCAATGCAGGATCCTGCCCAACCTGTTAGCTGTCTCCCGGAGTCACCTAGTGCAG,8280 fluorescence intensity (a.u.)
14,TGCTGTGCCCGCGCTGTCCATCCCGATCCTGTCGTTCAGGCGGAGTCACCTAGTGCAG,10700 fluorescence intensity (a.u.)
15,AGGGTGTCAAAGTATACTTTTTTTTCTTTCATCTCTAAACCGGAGTCACCTAGTGCAG,10500 fluorescence intensity (a.u.)
16,CATTTCTGTTCCATTTCTCATCCATCGCGCGTCGTCTCCACGGAGTCACCTAGTGCAG,14300 fluorescence intensity (a.u.)
17,AGTCCTGCATCTTCACAAATCCCACACAACCAAGCCGCCGCGGAGTCACCTAGTGCAG,8780 fluorescence intensity (a.u.)
18,TTTTATTTTTTCATTGGATTTTCGCGGGCGGGCCATTGCCCGGAGTCACCTAGTGCAG,14600 fluorescence intensity (a.u.)
19,TCTCGCGCGCGCTCACTTGCTCACGGCCCCGCCGACCTCACGGAGTCACCTAGTGCAG,8360 fluorescence intensity (a.u.)
20,CTTATACATTGGGTTGAGGGTTTTTTTGGTTGAGTTCGGCCGGAGTCACCTAGTGCAG,9220 fluorescence intensity (a.u.)
21,GCAAAGTTGTTTCCACCTGATTTCCCTGCAATTGGATTCTCGGAGTCACCTAGTGCAG,8360 fluorescence intensity (a.u.)

# At a glance, part of the list above:
row,Sequence,binding signal
8,CATTTTCACTCCCTACTCAACAAACTGGACTGTTTAGCTACGGAGTCACCTAGTGCAG,8150 fluorescence intensity (a.u.)
9,ACGAATTTGAACAAACTCTCTATCTAGATTCATTGACCTTCGGAGTCACCTAGTGCAG,8450 fluorescence intensity (a.u.)
10,GTTGGGGTGGTTGGTTTGGGGATCCCCTGTTGTACCCTGCCGGAGTCACCTAGTGCAG,10700 fluorescence intensity (a.u.)

# (listing goes on)

row,Sequence,binding signal
1,CTTTCGGCTTCGGTGCTGCTGCTGGCGCCTCATTGCCCGTCGGAGTCACCTAGTGCAG,8390 fluorescence intensity (a.u.)
2,CCCTCGTCCTGCCGAAGCTTTAGTCAACATTTCCTTGGATCGGAGTCACCTAGTGCAG,10300 fluorescence intensity (a.u.)
3,CACCGTTGACAATATTTACCTATACTTATATCGATTTGTGCGGAGTCACCTAGTGCAG,9120 fluorescence intensity (a.u.)
4,GAAGACAGTGACATCATGTTCATCCACGATTACCACCTCTCGGAGTCACCTAGTGCAG,8220 fluorescence intensity (a.u.)
5,TCTATACTCTACTTCTAATATTCCTTGTTTTTAATTCCGACGGAGTCACCTAGTGCAG,8950 fluorescence intensity (a.u.)
6,GGGTGGGGCCCGCATGTCAACCTCACAACGCTCTCCGAGGCGGAGTCACCTAGTGCAG,9420 fluorescence intensity (a.u.)
7,CGGTGTTAGGGGTCGTTTGTCCGGTATGTATAGTTTATGGCGGAGTCACCTAGTGCAG,8350 fluorescence intensity (a.u.)
8,AGGAGTTGTTTTTCATTTCGTATAACATATGTCCCTTTTTCGGAGTCACCTAGTGCAG,10500 fluorescence intensity (a.u.)
9,AAAGAAGGAAATCATCACACTCTTATGCGCTGTTTAGTTCCGGAGTCACCTAGTGCAG,9430 fluorescence intensity (a.u.)
10,TTTTCCGTCACATCGTTCCAATTTCAACCAAACTTCCAATCGGAGTCACCTAGTGCAG,11400 fluorescence intensity (a.u.)
11,TTCCTATAAAATTCCTTCGTTCCAAGAAAGCCGTTGACCACGGAGTCACCTAGTGCAG,11900 fluorescence intensity (a.u.)
12,CCATACGCCGGCACGCGTTCCCAACACCGCAAGCCATTCTCGGAGTCACCTAGTGCAG,8540 fluorescence intensity (a.u.)
13,AGACTGCCTATGTTTTGATTTCCATTTGTCTTAACGTTTCCGGAGTCACCTAGTGCAG,8190 fluorescence intensity (a.u.)
14,ACTGGTCATTTCCTCTATTAAAGTACTATCCATTTTAGCCCGGAGTCACCTAGTGCAG,8220 fluorescence intensity (a.u.)
15,ACCACTCAAAAACTCTCTCTCTCTACCCAAACAGGTTTTGCGGAGTCACCTAGTGCAG,8600 fluorescence intensity (a.u.)
16,TTTTTCCGCTGCTGCTGCTTTTGTTTCGGTGTGAGGACTACGGAGTCACCTAGTGCAG,8720 fluorescence intensity (a.u.)
17,AAAACTGGCCCGGTCTATCATGACGCACAGCCTGCTCAGCCGGAGTCACCTAGTGCAG,8090 fluorescence intensity (a.u.)
18,ATCTTTTCGCTTATGCTTATACTTATCAGCCACAATTTTACGGAGTCACCTAGTGCAG,9720 fluorescence intensity (a.u.)
19,CGCCAATCCACCGCATCATCGGCTTCCCTCCGGCTCGAGCCGGAGTCACCTAGTGCAG,12800 fluorescence intensity (a.u.)
20,CAATAATCTTGTCTTTAGAGTGTATGCATTTGGTTTGTATCGGAGTCACCTAGTGCAG,8630 fluorescence intensity (a.u.)
21,TACTCGGTACTCCTTACCCATTAGTGCTATGTAAAGCTGCCGGAGTCACCTAGTGCAG,9460 fluorescence intensity (a.u.)
